Experimental data published in paper PMC8767095.
No constants are given. Whether binding was seen depends on the method and setting. In cells and extracts the contact can be indirect. Some binding calls cover weakened binding; strength is not graded here.

Protein sequences, listed by entry. Tags and fused reporters are not part of them.
UniProt P05627: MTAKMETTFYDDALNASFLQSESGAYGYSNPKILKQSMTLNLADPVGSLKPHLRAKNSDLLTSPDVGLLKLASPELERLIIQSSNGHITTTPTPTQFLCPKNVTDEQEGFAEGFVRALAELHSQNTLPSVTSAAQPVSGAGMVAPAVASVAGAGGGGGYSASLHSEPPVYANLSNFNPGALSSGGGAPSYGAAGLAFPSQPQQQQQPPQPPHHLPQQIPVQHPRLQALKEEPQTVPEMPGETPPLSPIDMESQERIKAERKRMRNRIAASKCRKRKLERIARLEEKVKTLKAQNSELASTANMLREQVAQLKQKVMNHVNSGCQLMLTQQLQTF
UniProt Q8VBV4: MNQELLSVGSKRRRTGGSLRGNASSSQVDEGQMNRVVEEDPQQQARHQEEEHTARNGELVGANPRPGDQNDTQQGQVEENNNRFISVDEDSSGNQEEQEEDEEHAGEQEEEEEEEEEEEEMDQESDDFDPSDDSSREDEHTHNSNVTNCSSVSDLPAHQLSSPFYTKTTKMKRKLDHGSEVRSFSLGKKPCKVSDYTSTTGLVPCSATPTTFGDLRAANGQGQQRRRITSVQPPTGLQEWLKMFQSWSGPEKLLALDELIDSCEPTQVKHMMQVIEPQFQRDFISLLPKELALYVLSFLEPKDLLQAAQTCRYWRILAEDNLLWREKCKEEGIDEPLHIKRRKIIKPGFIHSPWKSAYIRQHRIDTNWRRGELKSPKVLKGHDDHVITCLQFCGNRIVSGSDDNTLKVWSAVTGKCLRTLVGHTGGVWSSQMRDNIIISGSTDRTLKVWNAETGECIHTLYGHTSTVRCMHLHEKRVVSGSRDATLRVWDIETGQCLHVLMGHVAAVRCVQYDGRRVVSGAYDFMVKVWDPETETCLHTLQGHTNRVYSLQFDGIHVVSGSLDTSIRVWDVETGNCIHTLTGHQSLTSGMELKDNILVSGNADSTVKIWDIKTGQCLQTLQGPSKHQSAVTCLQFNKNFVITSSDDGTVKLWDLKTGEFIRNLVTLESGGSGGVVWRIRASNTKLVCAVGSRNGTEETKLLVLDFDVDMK

Target: c-Jun (mouse (endogenous in BMDMs)) (UniProt P05627)
Assay: co-IP; endogenous proteins in lysates of mouse BMDMs stimulated with IL-4 for indicated hours; immunoprecipitation and immunoblot by a standard protocol (ref. 35); which protein was precipitated is not told

binding: binds
Substance: F-box and WD repeat domain-containing 7 (Fbxw7) (from UniProt Q8VBV4 1-710)
